Laboratory results from the supplement of paper PMC10849652.
The list shows a part of the results.

The chains behind the UniProt entries cited, without tags or fusion partners. Where a name states a change or a piece, a line headed by the entry shows the natural chain unless it says otherwise.
UniProt Q9NVH0: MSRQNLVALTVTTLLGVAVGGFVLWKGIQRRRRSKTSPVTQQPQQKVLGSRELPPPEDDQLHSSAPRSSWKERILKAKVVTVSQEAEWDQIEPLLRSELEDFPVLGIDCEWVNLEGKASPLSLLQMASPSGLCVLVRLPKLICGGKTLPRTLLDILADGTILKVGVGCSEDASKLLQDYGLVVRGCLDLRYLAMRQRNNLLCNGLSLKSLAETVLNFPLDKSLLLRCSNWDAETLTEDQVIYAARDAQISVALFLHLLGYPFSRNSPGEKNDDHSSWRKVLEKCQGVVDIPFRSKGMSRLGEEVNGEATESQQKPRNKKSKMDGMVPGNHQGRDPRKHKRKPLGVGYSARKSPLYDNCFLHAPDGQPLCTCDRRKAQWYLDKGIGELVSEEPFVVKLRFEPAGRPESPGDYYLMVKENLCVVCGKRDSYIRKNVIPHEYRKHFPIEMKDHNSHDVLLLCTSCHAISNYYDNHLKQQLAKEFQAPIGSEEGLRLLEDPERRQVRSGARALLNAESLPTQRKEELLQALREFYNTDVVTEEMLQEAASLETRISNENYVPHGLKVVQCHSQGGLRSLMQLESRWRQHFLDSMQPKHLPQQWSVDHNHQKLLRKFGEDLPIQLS
UniProt Q86X53: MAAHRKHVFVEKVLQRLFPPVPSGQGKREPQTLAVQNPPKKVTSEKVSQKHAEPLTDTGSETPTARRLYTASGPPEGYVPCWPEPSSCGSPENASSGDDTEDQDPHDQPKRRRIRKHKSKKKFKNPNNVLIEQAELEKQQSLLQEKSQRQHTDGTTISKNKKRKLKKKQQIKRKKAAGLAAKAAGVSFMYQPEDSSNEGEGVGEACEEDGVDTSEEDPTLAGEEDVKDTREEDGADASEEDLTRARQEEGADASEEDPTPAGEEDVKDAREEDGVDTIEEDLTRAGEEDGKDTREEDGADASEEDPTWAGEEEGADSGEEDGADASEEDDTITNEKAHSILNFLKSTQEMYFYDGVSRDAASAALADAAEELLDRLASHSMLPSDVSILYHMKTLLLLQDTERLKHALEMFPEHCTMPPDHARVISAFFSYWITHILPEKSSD
UniProt P25116: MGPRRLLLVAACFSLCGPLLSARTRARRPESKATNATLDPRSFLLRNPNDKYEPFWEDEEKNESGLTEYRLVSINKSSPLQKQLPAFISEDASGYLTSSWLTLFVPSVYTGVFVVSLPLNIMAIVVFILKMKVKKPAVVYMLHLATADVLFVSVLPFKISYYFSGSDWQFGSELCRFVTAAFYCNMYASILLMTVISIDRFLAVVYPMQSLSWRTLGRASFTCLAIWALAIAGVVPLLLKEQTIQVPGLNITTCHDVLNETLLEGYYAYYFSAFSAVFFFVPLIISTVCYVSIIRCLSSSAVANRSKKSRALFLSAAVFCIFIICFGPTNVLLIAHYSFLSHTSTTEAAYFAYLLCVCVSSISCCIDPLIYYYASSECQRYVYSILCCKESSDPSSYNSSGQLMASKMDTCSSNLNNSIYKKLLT
UniProt Q5VUB5: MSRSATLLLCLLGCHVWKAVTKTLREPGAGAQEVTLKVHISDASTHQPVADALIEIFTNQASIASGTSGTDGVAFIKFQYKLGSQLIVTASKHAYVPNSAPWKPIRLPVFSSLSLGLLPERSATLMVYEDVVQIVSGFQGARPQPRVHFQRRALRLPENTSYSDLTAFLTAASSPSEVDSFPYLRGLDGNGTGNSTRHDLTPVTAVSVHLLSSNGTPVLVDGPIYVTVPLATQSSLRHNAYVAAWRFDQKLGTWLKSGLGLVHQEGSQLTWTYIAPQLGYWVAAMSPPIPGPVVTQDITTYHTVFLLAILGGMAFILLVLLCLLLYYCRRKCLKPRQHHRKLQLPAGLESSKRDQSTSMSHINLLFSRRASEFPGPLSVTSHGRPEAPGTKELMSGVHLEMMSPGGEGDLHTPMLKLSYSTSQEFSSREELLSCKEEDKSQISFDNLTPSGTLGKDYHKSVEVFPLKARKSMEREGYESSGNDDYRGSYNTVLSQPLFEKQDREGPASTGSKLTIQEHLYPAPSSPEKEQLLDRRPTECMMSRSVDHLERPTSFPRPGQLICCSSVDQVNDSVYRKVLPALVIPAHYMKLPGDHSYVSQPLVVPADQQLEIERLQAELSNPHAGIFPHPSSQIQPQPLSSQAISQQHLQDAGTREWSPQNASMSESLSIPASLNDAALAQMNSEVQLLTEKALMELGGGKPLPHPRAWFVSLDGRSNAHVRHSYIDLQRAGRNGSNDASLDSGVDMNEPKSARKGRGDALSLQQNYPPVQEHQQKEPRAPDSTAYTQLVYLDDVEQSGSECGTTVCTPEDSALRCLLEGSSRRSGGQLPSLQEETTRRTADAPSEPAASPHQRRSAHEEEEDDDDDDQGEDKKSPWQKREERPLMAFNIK
UniProt Q6NZ36: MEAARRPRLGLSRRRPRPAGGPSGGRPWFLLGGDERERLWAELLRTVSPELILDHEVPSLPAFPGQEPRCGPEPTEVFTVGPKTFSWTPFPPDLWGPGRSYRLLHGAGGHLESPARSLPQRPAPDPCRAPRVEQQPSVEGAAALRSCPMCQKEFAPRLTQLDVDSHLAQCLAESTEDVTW
UniProt Q9P2D6: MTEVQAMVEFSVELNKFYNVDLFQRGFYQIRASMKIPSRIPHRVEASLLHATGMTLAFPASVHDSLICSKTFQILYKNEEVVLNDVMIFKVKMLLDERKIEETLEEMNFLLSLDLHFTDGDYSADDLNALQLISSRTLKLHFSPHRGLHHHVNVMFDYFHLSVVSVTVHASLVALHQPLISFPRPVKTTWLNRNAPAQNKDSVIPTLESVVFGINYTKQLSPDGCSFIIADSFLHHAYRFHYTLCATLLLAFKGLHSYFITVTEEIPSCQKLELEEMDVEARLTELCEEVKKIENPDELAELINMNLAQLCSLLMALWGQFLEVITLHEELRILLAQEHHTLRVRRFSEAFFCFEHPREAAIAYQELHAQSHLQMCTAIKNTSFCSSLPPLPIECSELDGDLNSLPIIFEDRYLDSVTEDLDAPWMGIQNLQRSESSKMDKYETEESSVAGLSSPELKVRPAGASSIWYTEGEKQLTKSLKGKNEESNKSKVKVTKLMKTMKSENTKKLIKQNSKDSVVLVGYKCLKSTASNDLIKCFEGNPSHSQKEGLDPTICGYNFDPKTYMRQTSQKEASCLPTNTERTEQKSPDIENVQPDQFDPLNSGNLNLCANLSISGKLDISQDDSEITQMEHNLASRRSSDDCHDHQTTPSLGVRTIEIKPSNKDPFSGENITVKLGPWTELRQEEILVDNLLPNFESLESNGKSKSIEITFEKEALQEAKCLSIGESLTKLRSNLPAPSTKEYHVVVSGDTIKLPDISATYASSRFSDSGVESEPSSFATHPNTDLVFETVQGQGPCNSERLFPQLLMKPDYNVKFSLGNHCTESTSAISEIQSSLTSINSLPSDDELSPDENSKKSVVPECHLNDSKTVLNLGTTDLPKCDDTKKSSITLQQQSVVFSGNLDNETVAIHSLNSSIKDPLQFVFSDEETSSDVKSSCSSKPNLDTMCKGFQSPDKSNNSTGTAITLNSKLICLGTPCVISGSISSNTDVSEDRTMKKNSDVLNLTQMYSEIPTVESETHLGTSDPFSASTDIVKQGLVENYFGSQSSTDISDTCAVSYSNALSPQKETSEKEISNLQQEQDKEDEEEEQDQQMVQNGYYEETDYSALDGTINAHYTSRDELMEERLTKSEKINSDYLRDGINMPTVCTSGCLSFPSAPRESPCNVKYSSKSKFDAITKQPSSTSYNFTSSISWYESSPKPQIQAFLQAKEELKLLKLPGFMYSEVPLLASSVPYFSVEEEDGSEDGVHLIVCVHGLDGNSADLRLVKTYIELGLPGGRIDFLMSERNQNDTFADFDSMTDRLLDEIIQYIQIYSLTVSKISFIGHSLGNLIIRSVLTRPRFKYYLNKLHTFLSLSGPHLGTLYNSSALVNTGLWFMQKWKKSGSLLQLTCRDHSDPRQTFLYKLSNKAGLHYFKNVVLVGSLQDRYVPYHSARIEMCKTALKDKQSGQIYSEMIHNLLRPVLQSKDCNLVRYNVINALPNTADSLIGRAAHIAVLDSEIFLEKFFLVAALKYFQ
UniProt Q8TBP5: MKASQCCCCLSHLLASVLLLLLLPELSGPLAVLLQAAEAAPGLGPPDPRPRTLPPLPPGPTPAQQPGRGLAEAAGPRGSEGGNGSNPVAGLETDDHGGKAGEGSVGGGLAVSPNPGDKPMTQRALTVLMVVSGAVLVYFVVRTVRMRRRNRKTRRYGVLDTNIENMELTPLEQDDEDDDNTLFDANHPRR
UniProt Q5T6L9: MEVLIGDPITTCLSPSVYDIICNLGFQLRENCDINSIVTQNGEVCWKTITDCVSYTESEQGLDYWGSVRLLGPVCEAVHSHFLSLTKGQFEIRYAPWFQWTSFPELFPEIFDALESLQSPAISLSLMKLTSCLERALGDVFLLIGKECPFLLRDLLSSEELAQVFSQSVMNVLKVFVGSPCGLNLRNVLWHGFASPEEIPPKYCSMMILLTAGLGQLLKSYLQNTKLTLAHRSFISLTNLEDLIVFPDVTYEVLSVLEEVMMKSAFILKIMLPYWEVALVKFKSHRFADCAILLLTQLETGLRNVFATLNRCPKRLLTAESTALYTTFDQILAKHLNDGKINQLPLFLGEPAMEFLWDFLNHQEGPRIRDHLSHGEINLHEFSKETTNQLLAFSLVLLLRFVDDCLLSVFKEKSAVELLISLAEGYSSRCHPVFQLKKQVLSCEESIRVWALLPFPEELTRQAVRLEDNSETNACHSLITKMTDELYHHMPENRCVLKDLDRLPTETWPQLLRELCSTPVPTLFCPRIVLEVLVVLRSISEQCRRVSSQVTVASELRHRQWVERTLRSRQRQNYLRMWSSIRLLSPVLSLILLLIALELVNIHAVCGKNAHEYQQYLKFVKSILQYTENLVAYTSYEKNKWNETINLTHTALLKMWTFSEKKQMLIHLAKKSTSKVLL
UniProt P34910: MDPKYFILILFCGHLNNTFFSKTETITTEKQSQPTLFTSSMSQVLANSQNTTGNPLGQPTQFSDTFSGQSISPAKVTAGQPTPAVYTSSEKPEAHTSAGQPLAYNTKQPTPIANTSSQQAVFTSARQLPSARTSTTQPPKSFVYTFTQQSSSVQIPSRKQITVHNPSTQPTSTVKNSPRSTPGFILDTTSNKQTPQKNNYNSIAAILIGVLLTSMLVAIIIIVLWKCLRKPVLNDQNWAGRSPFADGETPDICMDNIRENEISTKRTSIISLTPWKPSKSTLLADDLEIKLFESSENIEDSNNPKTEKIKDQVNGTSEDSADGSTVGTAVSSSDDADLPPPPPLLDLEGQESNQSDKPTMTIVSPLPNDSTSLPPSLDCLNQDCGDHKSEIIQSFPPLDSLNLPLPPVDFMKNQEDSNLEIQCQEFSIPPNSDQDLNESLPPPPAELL
UniProt Q5T8I3: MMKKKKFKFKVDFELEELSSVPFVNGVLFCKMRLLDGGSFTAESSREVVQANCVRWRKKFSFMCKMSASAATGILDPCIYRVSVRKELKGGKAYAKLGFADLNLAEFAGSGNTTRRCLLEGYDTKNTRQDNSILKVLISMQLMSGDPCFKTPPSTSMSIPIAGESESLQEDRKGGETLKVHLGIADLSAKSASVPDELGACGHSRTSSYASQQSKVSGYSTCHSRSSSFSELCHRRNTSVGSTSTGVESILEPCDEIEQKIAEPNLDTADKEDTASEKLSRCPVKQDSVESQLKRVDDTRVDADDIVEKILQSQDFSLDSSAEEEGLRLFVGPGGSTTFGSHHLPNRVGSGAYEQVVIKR
UniProt Q9H6S3: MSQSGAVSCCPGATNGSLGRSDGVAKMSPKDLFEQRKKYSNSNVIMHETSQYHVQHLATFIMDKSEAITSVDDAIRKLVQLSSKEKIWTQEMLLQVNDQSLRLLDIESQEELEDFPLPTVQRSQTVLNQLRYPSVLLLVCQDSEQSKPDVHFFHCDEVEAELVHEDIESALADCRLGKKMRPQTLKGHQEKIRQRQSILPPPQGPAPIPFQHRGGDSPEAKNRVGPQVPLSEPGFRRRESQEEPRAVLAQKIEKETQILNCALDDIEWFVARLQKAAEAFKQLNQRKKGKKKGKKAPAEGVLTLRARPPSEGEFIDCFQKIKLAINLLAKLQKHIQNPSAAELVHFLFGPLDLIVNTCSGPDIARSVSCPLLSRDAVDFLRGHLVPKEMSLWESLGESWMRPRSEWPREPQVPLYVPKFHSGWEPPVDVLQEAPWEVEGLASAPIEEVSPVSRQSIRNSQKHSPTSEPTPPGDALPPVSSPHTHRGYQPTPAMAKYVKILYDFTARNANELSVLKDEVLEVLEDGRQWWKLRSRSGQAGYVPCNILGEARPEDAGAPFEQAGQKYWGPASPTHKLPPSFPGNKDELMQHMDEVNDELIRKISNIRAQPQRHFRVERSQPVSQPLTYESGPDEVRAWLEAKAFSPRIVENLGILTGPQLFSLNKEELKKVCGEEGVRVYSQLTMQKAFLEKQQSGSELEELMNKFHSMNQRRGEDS

Legend:
Test in all cases: log2 fold change, soluble protein after heating vs DMSO (PISA); higher = thermal stabilisation; K562 cells, 10 uM, 30 min; active = over 0.2 and 3.5 SD of the protein, either way, in both replicates (recomputed)
[1] = compound: Cn1cc(-c2ccc3c(c2)CCN3C(=O)Cc2cccc(C(F)(F)F)c2)c2c(N)ncnc21
Summary of the method: (§1)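 K562 cells at 2×10^6 cells/mL were given 10 μM compound for 30 min. Aliquots then went through 3 min of heating across 48°C-58°C, were pooled, and were extracted in PBS with 0.5% NP-40 at 4°C, and the supernatant after 21,000xg for 90 min was quantified by TMTpro 16plex LC-MS/MS with channel sums equalised. Thermal stability relative to control samples, from duplicates, is given as log2 fold change.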

[2] = compound: Cn1cc(-c2ccc3nnc(C(F)(F)c4ccc5ncccc5c4)n3n2)cn1
Summary of the method: as §1

tipifarnib = compound: Cn1cncc1[C@@](N)(c1ccc(Cl)cc1)c1ccc2c(c1)c(-c1cccc(Cl)c1)cc(=O)n2C [tipifarnib]
Summary of the method: as §1

[3] = compound: NC(=O)Nc1cc(-c2cccc(F)c2)sc1C(=O)N[C@H]1CCCNC1
Summary of the method: as §1

entinostat = compound: Nc1ccccc1NC(=O)c1ccc(CNC(=O)OCc2cccnc2)cc1 [entinostat]
Summary of the method: as §1

[4] = compound: O=C1NC(=O)C(c2cnc3ccccn23)=C1c1cn2c3c(cc(F)cc13)CN(C(=O)N1CCCCC1)CC2
Summary of the method: as §1

[5] = compound: Cc1cccc(CC(=O)N2CCc3c2ccc(-c2cn(C)c4ncnc(N)c24)c3F)n1
Summary of the method: as §1

[6] = compound: NC(=O)c1cnc(N[C@@H]2CCCC[C@@H]2N)nc1Nc1cccc(-n2nccn2)c1
Summary of the method: as §1

[7] = compound: NCC(=O)Nc1ccc(-n2nc(C(F)(F)F)cc2-c2ccc3c(ccc4ccccc43)c2)cc1
Summary of the method: as §1

vorinostat = compound: O=C(CCCCCCC(=O)Nc1ccccc1)NO [vorinostat]
Summary of the method: as §1

mubritinib = compound: FC(F)(F)c1ccc(/C=C/c2nc(COc3ccc(CCCCn4ccnn4)cc3)co2)cc1 [mubritinib]
Summary of the method: as §1

[8] = compound: NC1(c2ccc(-c3nc4ccn5c(=O)[nH]nc5c4cc3-c3ccccc3)cc2)CCC1
Summary of the method: as §1

citarinostat = compound: O=C(CCCCCCNC(=O)c1cnc(N(c2ccccc2)c2ccccc2Cl)nc1)NO [citarinostat]
Summary of the method: as §1

silmitasertib = compound: O=C(O)c1ccc2c(c1)nc(Nc1cccc(Cl)c1)c1ccncc12 [silmitasertib]
Summary of the method: as §1

[9] = compound: c1cc(OCCN2CCCCC2)cc(-c2n[nH]c3ccc(-c4nnc[nH]4)cc23)c1
Summary of the method: as §1

nilotinib = compound: Cc1cn(-c2cc(NC(=O)c3ccc(C)c(Nc4nccc(-c5cccnc5)n4)c3)cc(C(F)(F)F)c2)cn1 [nilotinib]
Summary of the method: as §1

[10] = compound: Cc1nc(Nc2n[nH]c3c2CN(C(=O)N[C@H](CN(C)C)c2ccccc2)C3(C)C)c2sccc2n1
Summary of the method: as §1

[11] = compound: Cc1ncc(-c2ccnc(Nc3ccc(S(C)(=O)=O)cc3)n2)n1C(C)C
Summary of the method: as §1

dasatinib = compound: Cc1nc(Nc2ncc(C(=O)Nc3c(C)cccc3Cl)s2)cc(N2CCN(CCO)CC2)n1 [dasatinib]
Summary of the method: as §1

Measured: log2 fold change

EXD2 (UniProt Q9NVH0)
inactive: [1] -0.069 | [2] -0.202 | tipifarnib 0.003 | [3] -0.073 | entinostat 0.132 | [4] 0.037

ERICH1 (UniProt Q86X53)
inactive: tipifarnib 0.048

F2R (UniProt P25116)
inactive: [5] 0.114 | [1] -0.077 | tipifarnib 0.006 | [6] -0.024 | [7] -0.242 | vorinostat -0.066

FAM171A1 (UniProt Q5VUB5)
inactive: [5] 0.146 | tipifarnib 0.085 | [6] 0.124 | [7] -0.039 | vorinostat 0.324 | [4] -0.217

FAAP20 isoform 2 (UniProt Q6NZ36)
inactive: [5] -0.289 | mubritinib 0.084 | [8] -0.133 | vorinostat 0.102 | citarinostat 0.136 | silmitasertib 0.011 | [4] 0.032 | [9] -0.167

FAM204A (UniProt Q9H8W3)
inactive: [5] -0.126 | [1] 0.017 | mubritinib -0.107 | [3] 0.053 | [8] 0.199 | [7] -0.06 | entinostat -0.049 | vorinostat 0 | silmitasertib -0.093 | [4] 0.169

FAM135A (UniProt Q9P2D6)
inactive: nilotinib 0.054 | [10] -0.138 | [11] -0.054 | [3] 0.069 | [7] -0.024 | entinostat -0.03 | [4] -0.088

EPB41L5 (UniProt Q9HCM4)
inactive: [4] 0.017

FAM174A (UniProt Q8TBP5)
inactive: [7] -0.167

F2RL3 (UniProt Q96RI0)
inactive: dasatinib -0.03 | [1] -0.051 | [2] 0.043 | tipifarnib -0.016 | [6] 0.003 | [7] -0.085

ERAP2 (UniProt Q6P179)
inactive: nilotinib 0.364 | [10] -0.034 | dasatinib 0.02 | [11] 0.029 | tipifarnib 0.022 | mubritinib -0.112 | [8] -0.148 | silmitasertib -0.008 | [4] 0.024

ERMARD (UniProt Q5T6L9)
inactive: [1] 0.408 | mubritinib 0.01 | [8] 0.055 | silmitasertib -0.052

EVI2B isoform 2 (UniProt P34910)
inactive: [7] 0.018

FAM102B (UniProt Q5T8I3)
inactive: [2] 0.032 | tipifarnib -0.03 | [7] 0.019 | [4] 0.02

EPS8L2 isoform 3 (UniProt Q9H6S3)
inactive: dasatinib 0.262 | [2] 0.017 | [3] -0.26 | entinostat -0.211 | citarinostat -0.023 | [4] 0.084 | [9] -0.066

Taken from the entries so far (two entries):
FAM102B (UniProt Q5T8I3)
inactive: [2] 0.032 | tipifarnib -0.03 | [7] 0.019 | [4] 0.02

EPS8L2 isoform 3 (UniProt Q9H6S3)
inactive: dasatinib 0.262 | [2] 0.017 | [3] -0.26 | entinostat -0.211 | citarinostat -0.023 | [4] 0.084 | [9] -0.066
